Measurements as given in PubChem BioAssay AID2685 (National Center for Advancing Translational Sciences (NCATS), 2010).
This is one part of the list. The main result of the screen is listed elsewhere. These columns were measured beside it and carry no call. Compounds called inactive in the main read-out are mostly missing here. Potencies come from curve fits of mixed quality, noted in brackets.

Experiment: qHTS Assay for Lipid Storage Modulators in Drosophila S3 Cells;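 for cell number change: cells counted by Cell Tracker Red CMTPX staining in the red channel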
Details: BODIPY lipid droplet fluorescence, 18-24 h; for cell number change: measured here: cell count max response, cells fed with added oleic acid
Procedure, shortened: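 Drosophila S3 cells loaded with oleic acid (400 uM, as added) and compounds at several concentrations; lipid droplets imaged by 488-nm laser-scanning cytometry, 500–530 nm intensity and object ratio to cell channel. Percent activity normalized to 20 uM Triacsin C.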

[1] = measured here: cell number channel AC50, cells fed with added oleic acid
[2] = measured here: lipid fluorescence (Fed channel) AC50, cells fed with added oleic acid

Row | Compound | cell number change [%] | AC50 [1] | AC50 [2]
1 | CSc1ccc(C2Nc3cccc4cccc(c34)N2)cc1 | -42.7 | 8200 nM [falling, partial curve, poor fit] | 1160 nM [falling, full curve]
2 | CCOc1ccc(NC(=O)CN(C)C(=O)c2ccc(N3CCCC3)c([N+](=O)[O-])c2)cc1OCC |  | 1300 nM [rising, single point] | 
3 | Cc1nc(NC(=O)c2ccccc2)sc1-c1csc(NCCc2ccccc2)n1 |  | 461 nM [rising, partial curve, poor fit] | 517 nM [rising, full curve]
4 | Cc1ccc(C)c(C(=O)COC(=O)C2CCN(c3ccc(C(F)(F)F)cn3)CC2)c1 | 17.3 |  | 
5 | COCCSc1nnc(NC(=O)c2ccc3c(c2)OCO3)s1 | 19.5 |  | 13000 nM [rising, partial curve, poor fit]
6 | CCOc1ccc(S(=O)(=O)NCCCN2CCCC2=O)cc1 | 39 | 6510 nM [rising, partial curve] | 8200 nM [rising, partial curve]
7 | CCOc1ccc(S(=O)(=O)Nc2ccc(S(=O)(=O)Nc3cc(OC)ccc3OC)cc2)cc1 |  | 1300 nM [rising, partial curve] | 
8 | COc1cc2c(cc1OC)CN(C(=O)CCNS(=O)(=O)c1ccccc1F)CC2 | 1.74 | 58 nM [rising, full curve, poor fit] | 
9 | CCOc1ccc(NC(=O)Nc2ccc(Br)cn2)cc1 | 6.91 |  | 130 nM [rising, full curve, poor fit]
10 | Cc1n[nH]c(=S)n(NC(=O)CC(=O)Nn2c(=S)[nH]nc(C)c2=O)c1=O | -13.4 | 6510 nM [rising, single point] | 4110 nM [rising, partial curve, poor fit]
11 | CCOc1ccc(-c2n[nH]c(=S)n2/N=C/c2cc3c(cc2[N+](=O)[O-])OCO3)cc1 | 11.2 |  | 1840 nM [rising, full curve]
12 | COc1cccc(CNC(=O)c2cc(S(=O)(=O)N3CCCCC3)c[nH]2)c1 | 12.3 |  | 
13 | Cc1ccccc1C(=O)Nc1cc(S(=O)(=O)N2CCOCC2)ccc1N1CCN(C)CC1 | -0.519 |  | 29100 nM [falling, single point]
14 | CCOc1ccc2[nH]cc(S(=O)(=O)c3ccc(Cl)cc3)c(=O)c2c1 | -1.9 |  | 
15 | CCCN(C(=O)c1ccc(N2CCCC2=O)cc1)C1CCS(=O)(=O)C1 (centres undefined) | 5.78 |  | 146 nM [rising, partial curve, poor fit]
16 | CCC(C)[C@H](NC(=O)c1cc2cc(Cl)ccc2n1C)C(=O)N1CCC[C@H]1C(=O)O (some centres undefined) | 17.8 | 326 nM [rising, full curve, poor fit] | 29100 nM [rising, single point]
17 | COc1cc([N+](=O)[O-])ccc1NC(=S)Nn1cnnc1 | 22.9 |  | 5800 nM [rising, partial curve, poor fit]
18 | CSCCC(NC(N)=O)C(=O)N(C)CC(=O)Nc1ccc(C)cc1 (centres undefined) | 8.19 |  | 

Row | Compound | cell number change [%] | AC50 [1] | AC50 [2]
19 | Cc1cccc(NC(=O)COC(=O)c2ccc(S(=O)(=O)N3CCCCCC3)cc2)c1 | -40.9 | 29100 nM [falling, single point] | 146 nM [falling, full curve, poor fit]
20 | Cc1sc(NC(=O)c2cc(-c3ccc(Cl)cc3)nc3ccccc23)c(C(N)=O)c1C | 17.2 |  | 16400 nM [falling, single point]
21 | COC(=O)COc1ccc(C(C2C(=O)CC(C)(C)CC2=O)C2C(=O)CC(C)(C)CC2=O)cc1 |  | 6510 nM [falling, single point] | 
22 | COc1cc(/C=C2/C(=N)N3N=C(CC(=O)N4CCOCC4)SC3=NC2=O)ccc1OCc1ccccc1F | 1.18 |  | 
23 | CC1(C(=O)N2CCN(Cc3ccccc3Cl)CC2)CC1(Cl)Cl (centres undefined) | -20.4 |  | 103 nM [falling, full curve, poor fit]
24 | CCCCNC(=O)c1cc2c(-c3ccc(Cl)cc3)nn(C)c2s1 |  |  | 4110 nM [rising, partial curve]
25 | Cc1cnc(NC(=O)CSc2nnc(-c3ccc(Cl)cc3Cl)n2N)s1 | 54.4 | 25900 nM [rising, single point] | 
26 | OCC1(Cc2ccc(Cl)cc2)CCN(Cc2ccccc2F)CC1 | -12.1 |  | 259 nM [falling, full curve]
27 | COc1ccc(C(=O)c2sc3nc(-c4ccc(OC)cc4)ccc3c2N)cc1 | -22.5 |  | 29100 nM [falling, single point]
28 | CC(C)(C)OC(=O)N1CCN(CCNC(=O)c2ccccc2)CC1 | -13.9 |  | 580 nM [rising, single point]
29 | Cc1ccc(S(=O)(=O)NC(=O)NN2CC3CCCC3C2)cc1 (centres undefined) | -18.1 | 4.61 nM [falling, full curve, poor fit] | 14600 nM [falling, partial curve, poor fit]
30 | C/C(=N/NC(=O)CNC(=O)c1cccnc1)c1ccc(Cl)c(Cl)c1 | 3.41 |  | 1840 nM [rising, partial curve, poor fit]
31 | O=C(O)[C@H]1CCCN1C(=O)c1ccccc1N1C(=O)[C@@H]2Cc3c([nH]c4ccccc34)C(c3cccc(Cl)c3)N2C1=O (some centres undefined) | 8.32 |  | 29100 nM [rising, single point]
32 | O=C(CCCCCn1c(=O)[nH]c2ccccc2c1=O)N1CCN(Cc2ccc3c(c2)OCO3)CC1 | 9.11 | 1160 nM [rising, full curve] | 2590 nM [falling, full curve]
33 | C/C(=N/Nc1nc(-c2ccccc2F)nc2ccccc12)c1ccccc1O | 12.2 | 116 nM [rising, full curve, poor fit] | 130 nM [rising, full curve, poor fit]
34 | Cc1cc(C)nc(N2CCCC(C(=O)Nc3cccc(Cl)c3)C2)n1 (centres undefined) | 20.6 |  | 
35 | CCn1cc(C(=O)Nc2cccc(NC(C)=O)c2)c2cc(OC)c(OC)cc2c1=O | -37.7 | 29100 nM [falling, single point] | 29100 nM [falling, single point]

3 compounds already listed, sorted by number of heavy atoms, ascending.
Row | Compound | cell number change [%] | AC50 [1] | AC50 [2]
29 | Cc1ccc(S(=O)(=O)NC(=O)NN2CC3CCCC3C2)cc1 (centres undefined) | -18.1 | 4.61 nM [falling, full curve, poor fit] | 14600 nM [falling, partial curve, poor fit]
26 | OCC1(Cc2ccc(Cl)cc2)CCN(Cc2ccccc2F)CC1 | -12.1 |  | 259 nM [falling, full curve]
22 | COc1cc(/C=C2/C(=N)N3N=C(CC(=O)N4CCOCC4)SC3=NC2=O)ccc1OCc1ccccc1F | 1.18 |  | 
